Laboratory results from doi:10.1101/334581.
These are yes or no findings as the source states them, for the method shown. Binding seen in cells or lysates may run through a third protein. Some results given as binding are weak or reduced against the parent protein; the word gives no strength. Where a sequence is shown, tags or fusion partners need not be part of it.

Protein sequences, listed by entry. Tags and fused reporters are not part of them.
UniProt Q6WWW4: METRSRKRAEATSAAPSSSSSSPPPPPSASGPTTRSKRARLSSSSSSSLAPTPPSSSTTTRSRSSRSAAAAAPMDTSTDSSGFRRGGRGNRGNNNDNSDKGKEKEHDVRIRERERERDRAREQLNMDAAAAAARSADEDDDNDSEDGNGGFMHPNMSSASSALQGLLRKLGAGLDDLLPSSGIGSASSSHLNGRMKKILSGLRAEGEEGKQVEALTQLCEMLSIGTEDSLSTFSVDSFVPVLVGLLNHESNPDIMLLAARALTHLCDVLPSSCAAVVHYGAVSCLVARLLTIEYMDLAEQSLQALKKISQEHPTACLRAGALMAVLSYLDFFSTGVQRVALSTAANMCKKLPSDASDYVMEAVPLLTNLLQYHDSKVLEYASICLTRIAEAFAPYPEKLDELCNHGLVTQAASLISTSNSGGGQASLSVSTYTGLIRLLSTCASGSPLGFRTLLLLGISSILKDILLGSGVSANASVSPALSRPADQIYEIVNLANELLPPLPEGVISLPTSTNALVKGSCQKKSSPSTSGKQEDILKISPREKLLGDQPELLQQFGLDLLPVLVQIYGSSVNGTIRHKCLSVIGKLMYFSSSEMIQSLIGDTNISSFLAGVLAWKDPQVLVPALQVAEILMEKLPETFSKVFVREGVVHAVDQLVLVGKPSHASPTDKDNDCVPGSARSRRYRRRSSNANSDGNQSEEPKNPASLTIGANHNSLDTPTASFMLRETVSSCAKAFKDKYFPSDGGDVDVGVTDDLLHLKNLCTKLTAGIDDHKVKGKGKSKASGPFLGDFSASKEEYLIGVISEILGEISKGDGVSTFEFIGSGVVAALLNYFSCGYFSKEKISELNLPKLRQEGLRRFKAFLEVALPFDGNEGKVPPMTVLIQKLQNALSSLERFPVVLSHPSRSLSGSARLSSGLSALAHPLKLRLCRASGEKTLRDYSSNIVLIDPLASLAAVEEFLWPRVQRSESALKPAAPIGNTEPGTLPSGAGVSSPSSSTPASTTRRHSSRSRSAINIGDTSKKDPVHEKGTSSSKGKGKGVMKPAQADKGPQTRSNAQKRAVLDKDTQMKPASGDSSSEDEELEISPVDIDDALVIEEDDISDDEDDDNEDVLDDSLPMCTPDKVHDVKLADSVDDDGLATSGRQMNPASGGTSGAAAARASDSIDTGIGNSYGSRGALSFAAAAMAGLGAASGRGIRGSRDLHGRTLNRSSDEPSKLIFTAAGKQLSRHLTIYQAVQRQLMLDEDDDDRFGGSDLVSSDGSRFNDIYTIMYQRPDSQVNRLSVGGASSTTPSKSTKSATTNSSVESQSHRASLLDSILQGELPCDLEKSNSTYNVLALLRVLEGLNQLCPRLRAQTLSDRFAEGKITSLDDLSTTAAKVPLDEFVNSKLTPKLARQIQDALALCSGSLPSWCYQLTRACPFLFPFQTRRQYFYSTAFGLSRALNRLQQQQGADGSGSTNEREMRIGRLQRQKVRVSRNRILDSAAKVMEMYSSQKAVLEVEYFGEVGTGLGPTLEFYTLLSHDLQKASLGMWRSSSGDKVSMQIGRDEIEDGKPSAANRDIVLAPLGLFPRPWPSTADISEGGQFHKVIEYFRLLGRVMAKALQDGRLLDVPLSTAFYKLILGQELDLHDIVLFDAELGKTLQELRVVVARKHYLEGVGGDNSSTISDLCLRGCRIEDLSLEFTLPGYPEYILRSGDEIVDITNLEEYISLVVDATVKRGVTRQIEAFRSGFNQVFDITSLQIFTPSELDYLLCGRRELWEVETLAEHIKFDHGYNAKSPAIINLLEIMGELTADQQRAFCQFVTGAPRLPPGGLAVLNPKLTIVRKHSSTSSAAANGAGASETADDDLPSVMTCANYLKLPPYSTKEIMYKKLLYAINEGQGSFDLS

Biological target: 3FLAG-UPL3 (Arabidopsis UBIQUITIN PROTEIN LIGASE 3 with 3xFLAG) (Arabidopsis thaliana) (UniProt Q6WWW4)
Assay: co-IP

B1: LEC2-GFP (Arabidopsis LEAFY COTYLEDON 2 fused to GFP) (protein, UniProt Q1PFR7 1-363)
chain: MDNFLPFPSSNANSVQELSMDPNNNRSHFTTVPTYDHHQAQPHHFLPPFSYPVEQMAAVMNPQPVYLSECYPQIPVTQTGSEFGSLVGNPCLWQERGGFLDPRMTKMARINRKNAMMRSRNNSSPNSSPSELVDSKRQLMMLNLKNNVQISDKKDSYQQSTFDNKKLRVLCEKELKNSDVGSLGRIVLPKRDAEANLPKLSDKEGIVVQMRDVFSMQSWSFKYKFWSNNKSRMYVLENTGEFVKQNGAEIGDFLTIYEDESKNLYFAMNGNSGKQNEGRENESRERNHYEEAMLDYIPRDEEEASIAMLIGNLNDHYPIPNDLMDLTTDLQHHQATSSSMPPEDHAYVGSSDDQVSFNDFEWW
binding: binds
